# PubChem BioAssay AID1259424 | University of Nebraska Medical Center | 2018
# Test: 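Find knockdowns that reproduce the expression shifts seen after KSR1 loss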 (primary screen)
# Cells: human HCT116 colon cancer cells
# Reagent: siRNA pool against human genes, 50 nM
# Measurement: 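Six signature mRNAs by branched-DNA multiplex assay, scaled to two housekeeping genes and non-targeting median, log2; matched to mean KSR1 knockdown profile by Pearson correlation and euclidean distance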
# Reading the numbers: mean correlation with KSR1 profile and KSR1 correlation: higher = expression change more like KSR1 knockdown; mean distance from KSR1 profile: higher = expression change less like KSR1 knockdown
# The whole screen tested about 14,000 reagents; this is a random part of them. 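Higher correlation or smaller distance means closer resemblance to KSR1 loss; control wells, including KSR1 knockdowns, recur on many plates.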 Reagent sequences are not shown. Not given: the time to read-out.
gene symbol,mean correlation with KSR1 profile,mean distance from KSR1 profile,"KSR1 correlation, replicate 1","KSR1 correlation, replicate 2","KSR1 correlation, replicate 3"
SLC4A8,0.302,1.95,0.218,0.431,0.381
ACIN1 (apoptotic chromatin condensation inducer 1),-0.367,2.27,-0.291,-0.637,-0.208
CMKLR2 (chemerin chemokine-like receptor 2),0.798,0.93,0.737,0.882,0.674
GPRASP1 (G protein-coupled receptor associated sorting protein 1),-0.192,1.69,-0.158,-0.52,-0.231
ARL2BP (ARF like GTPase 2 binding protein),0.0729,2.18,0.425,-0.163,-0.104
RTN4IP1 (reticulon 4 interacting protein 1),0.505,3.75,0.316,0.414,0.589
PIP4K2C (phosphatidylinositol-5-phosphate 4-kinase type 2 gamma),0.951,2.64,0.879,0.941,0.79
SPATA7 (spermatogenesis associated 7),0.38,2.11,0.33,0.177,0.454
CWC15 (CWC15 spliceosome associated protein),-0.818,3.05,-0.833,-0.671,-0.595
ARFIP1 (ARF interacting protein 1),0.0806,1.88,-0.0837,-0.0155,-0.326
RNF139 (ring finger protein 139),-0.491,1.33,-0.741,-0.14,-0.276
TERF1 (telomeric repeat binding factor 1),-0.223,1.94,-0.253,-0.52,-0.246
ARPC5L (actin related protein 2/3 complex subunit 5 like),0.729,1.02,0.455,0.736,0.686
SHOC2 (SHOC2 leucine rich repeat scaffold protein),0.134,0.761,-0.0674,0.144,0.104
CETN1 (centrin 1),0.0878,2.37,0.125,0.248,0.313
MMACHC (metabolism of cobalamin associated C),0.0264,2.35,0.228,-0.106,-0.134
HERC5 (HECT and RLD domain containing E3 ubiquitin protein ligase 5),-0.82,1.56,-0.694,-0.721,-0.867
EMC4 (ER membrane protein complex subunit 4),0.309,2.22,0.363,0.249,0.272
TOR1AIP2 (torsin 1A interacting protein 2),0.0552,2.27,-0.0829,-0.475,0.154
PIEZO2 (piezo type mechanosensitive ion channel component 2),-0.591,1.95,-0.66,-0.599,-0.271
SLC25A15,0.509,3.08,0.333,0.611,0.568
RCBTB2 (RCC1 and BTB domain containing protein 2),0.183,1.98,0.348,-0.0014,0.291
F2R (coagulation factor II thrombin receptor),0.617,3.08,0.618,0.804,0.15
"FOSL2 (FOS like 2, AP-1 transcription factor subunit)",0.875,0.977,0.89,0.806,0.8
SMIM8 (small integral membrane protein 8),-0.298,1.82,-0.402,-0.171,-0.041
CD38 (CD38 molecule),0.569,1.05,-0.0878,0.962,0.78
RHOQ (ras homolog family member Q),0.146,1.63,0.118,0.141,0.129
KRT4 (keratin 4),-0.621,2.02,-0.621,-0.681,-0.51
EIF4E (eukaryotic translation initiation factor 4E),-0.101,5.59,0.0392,-0.105,-0.156
"PLAU (plasminogen activator, urokinase)",0.129,1.5,-0.00332,0.289,0.128
UGT8 (UDP glycosyltransferase 8),0.524,1.27,0.515,0.502,0.452
RUSC1 (RUN and SH3 domain containing 1),0.368,1.64,0.539,0.0339,0.439
KAT5 (lysine acetyltransferase 5),-0.278,3.5,-0.16,-0.446,-0.329
CSTB (cystatin B),-0.463,3.03,-0.473,-0.397,-0.549
MED13 (mediator complex subunit 13),-0.353,1.64,-0.344,-0.163,-0.681
UFSP2 (UFM1 specific peptidase 2),0.122,1.57,0.157,-0.196,0.0899
EXOC2 (exocyst complex component 2),-0.471,5.4,0.544,-0.383,0.59
"RBBP8 (RB binding protein 8, endonuclease)",-0.0519,4.51,-0.0484,-0.00381,-0.00501
CDH23 (cadherin related 23),0.161,2.82,0.351,0.125,0.0736
GPD2 (glycerol-3-phosphate dehydrogenase 2),0.272,0.877,0.0785,0.376,0.24
HPDL (4-hydroxyphenylpyruvate dioxygenase like),0.48,1.8,-0.349,0.113,0.5
USP26 (ubiquitin specific peptidase 26),-0.183,1.73,0.0185,-0.343,-0.307
GGPS1 (geranylgeranyl diphosphate synthase 1),0.631,2.75,0.733,0.519,0.625
RGS1 (regulator of G protein signaling 1),0.72,1.61,0.832,0.672,0.599
PTPN2 (protein tyrosine phosphatase non-receptor type 2),0.346,1.24,0.349,0.467,0.144
PCMT1 (protein-L-isoaspartate (D-aspartate) O-methyltransferase),0.283,1.55,0.298,0.474,0.0579
DNAJA1 (DnaJ heat shock protein family (Hsp40) member A1),0.209,2.58,0.0323,0.0559,0.441
SNTB2 (syntrophin beta 2),-0.0411,2.02,-0.214,-0.0963,0.332
CPAMD8 (C3 and PZP like alpha-2-macroglobulin domain containing 8),0.0242,3.63,0.00914,-0.194,-0.166
BMP15 (bone morphogenetic protein 15),0.47,1.06,0.723,0.0536,0.696
